From PubChem BioAssay
Some of the results follow. Results with a measured potency or affinity are listed apart. Entries without a call are filed as inconclusive in the source.

Legend:
[1] = Drosophila SCA1 whole organism dose response for polyglutamine toxicity reduction (AID 1595); details: Drosophila SCA1 polyglutamine model, at 1 µM, stronger effect = higher value
PubChem AID 1597 = details: Drosophila SCA1 polyglutamine model, at 1 µM, stronger effect = higher value

Compound	suppression of toxicity [1]	suppression of toxicity (PubChem AID 1597)
CCc1nc(N)nc(N)c1-c1ccc(Cl)cc1	18.6	21.4
Cn1c(=O)c2c(ncn2CCO)n(C)c1=O	2.88	5.04
CC(=O)N[C@@H]1[C@@H](C(O)[C@H](O)CO)O[C@](O)(C(=O)O)C[C@@H]1O (some centres undefined)	4.29	5
CN1CCc2c(c3ccccc3n2Cc2ccccc2)C1	4.29	5.71
CC(=O)[C@H]1CCC2C3CCC4=CC(=O)CC[C@]4(C)C3CC[C@@]21C (some centres undefined)	4.29	3.57
C=C1c2c(Cl)ccc(O)c2C(O)=C2C(=O)[C@]3(O)C(O)=C(C(N)=O)C(=O)[C@@H](N(C)C)[C@@H]3[C@@H](O)[C@H]12	0	0.715
CC(CN(C)C)CN1c2ccccc2CCc2ccccc21 (centres undefined)	0	4.29
CCN(CC)Cc1ccc(Nc2ccnc3cc(Cl)ccc23)cc1O	5.71	1.43
COc1ccc2c3c1O[C@H]1C[C@@H](O)C=C[C@@]31CCN(C)C2	2.86	2.86
CCCc1ncc(C[n+]2ccccc2C)c(N)n1	2.85	5.71
CCN(CC)CCNC(=O)c1cc(S(C)(=O)=O)ccc1OC	15.7	11.4
Nc1ccc(C(=O)O)c(O)c1	1.43	6.43
COC(=O)Nc1nc2ccc(C(=O)c3ccccc3)cc2[nH]1	0	0
CC/C(=C(/CC)c1ccc(O)cc1)c1ccc(O)cc1	14.3	0.715
CC(=O)N[C@@H](Cc1c[nH]c2ccccc12)C(N)=O	1.43	11.4
COC(=O)C1=C(C)NC(C)=C(C(=O)OC)C1c1ccccc1[N+](=O)[O-]	5.71	7.14
NCc1ccc(S(N)(=O)=O)cc1	2.86	5

Sorted by SMILES length (ascending): part of the list above.
Compound	suppression of toxicity [1]	suppression of toxicity (PubChem AID 1597)
NCc1ccc(S(N)(=O)=O)cc1	2.86	5
COC(=O)Nc1nc2ccc(C(=O)c3ccccc3)cc2[nH]1	0	0
CC(=O)[C@H]1CCC2C3CCC4=CC(=O)CC[C@]4(C)C3CC[C@@]21C (some centres undefined)	4.29	3.57
